From ChEMBL document CHEMBL3988442, “University of Dundee, Small-Polar-MMV Screening Library” (2021).

Amino acid sequences for entries named in this document (tags omitted). Residues count along the entry.
UniProt Q4DA54, 1-478: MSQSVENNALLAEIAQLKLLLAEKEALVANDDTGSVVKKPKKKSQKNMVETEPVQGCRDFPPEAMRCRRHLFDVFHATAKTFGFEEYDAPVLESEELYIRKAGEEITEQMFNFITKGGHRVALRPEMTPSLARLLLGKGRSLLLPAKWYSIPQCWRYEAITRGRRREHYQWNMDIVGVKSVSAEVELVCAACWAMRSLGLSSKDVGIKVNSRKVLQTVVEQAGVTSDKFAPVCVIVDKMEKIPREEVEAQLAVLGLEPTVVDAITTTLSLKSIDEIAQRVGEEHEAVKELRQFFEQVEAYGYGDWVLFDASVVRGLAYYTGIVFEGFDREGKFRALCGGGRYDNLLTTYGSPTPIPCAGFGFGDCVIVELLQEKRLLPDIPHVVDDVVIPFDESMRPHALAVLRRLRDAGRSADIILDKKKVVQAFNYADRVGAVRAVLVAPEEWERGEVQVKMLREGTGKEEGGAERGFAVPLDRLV
UniProt Q8IDJ8, 1-583: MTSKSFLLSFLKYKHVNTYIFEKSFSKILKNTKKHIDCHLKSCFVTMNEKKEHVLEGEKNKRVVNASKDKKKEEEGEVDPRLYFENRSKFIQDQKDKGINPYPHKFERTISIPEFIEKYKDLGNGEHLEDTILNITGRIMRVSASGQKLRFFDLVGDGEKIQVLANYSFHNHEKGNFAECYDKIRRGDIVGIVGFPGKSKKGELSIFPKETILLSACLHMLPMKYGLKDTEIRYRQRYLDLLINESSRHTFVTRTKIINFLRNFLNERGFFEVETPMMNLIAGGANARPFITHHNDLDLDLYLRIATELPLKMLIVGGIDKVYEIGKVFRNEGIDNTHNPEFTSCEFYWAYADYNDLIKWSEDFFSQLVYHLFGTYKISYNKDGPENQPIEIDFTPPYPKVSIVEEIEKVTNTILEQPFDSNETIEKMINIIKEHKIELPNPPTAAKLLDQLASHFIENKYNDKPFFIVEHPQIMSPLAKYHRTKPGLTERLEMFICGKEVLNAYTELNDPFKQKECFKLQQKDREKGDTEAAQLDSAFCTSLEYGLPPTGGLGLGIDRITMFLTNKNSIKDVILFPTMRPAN

Results are given as percent effect.
The record does not define 0% and 100%; most values in the screen are far below 50% and negative numbers occur (in some assays of this library far below -100).
Compounds were drawn at random from those tested, without regard to their results.

TcHisRS: 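Histidine-tRNA ligase, Trypanosoma cruzi CL Brener (UniProt Q4DA54). Enzyme assay of histidyl-tRNA synthetase; the read-out is not stated. Tested at 30 µM. The record gives no direction; compounds that gave an IC50 in retests scored well above the rest, so higher reads as stronger inhibition. About 69,000 compounds were tested under these conditions; 0.045% (about 31) showed 50% or more at least once.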
PfKRS1: 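Enzyme assay of the cytosolic lysyl-tRNA synthetase in 384-well plates, read by luminescence. Target: Lysine-tRNA ligase, Plasmodium falciparum 3D7 (UniProt Q8IDJ8). Compounds at 30 µM. Higher reads as stronger inhibition, judged from the few compounds that gave an IC50. Of about 69,000 compounds tested this way, about 49 (0.071%) reached 50% or more in at least one test.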

| SMILES | TcHisRS | PfKRS1 |
|---|---|---|
| `O=C(c1cccnc1)N1CCC2(CCN(C(=O)c3ccco3)CC2)C1` | 10.58% | 5.013% |
| `Cc1nc(C2CCCN(C(=O)C(C)(C)n3cc(Cl)cn3)C2)no1` (stereo not drawn) | -1.88% | 1.839% |
| `CCCN(CCC)CCNc1c(-c2ccccc2)c(=O)c1=O` | -2% | -0.05837% |
| `c1csc(-c2noc(C3CCCNC3)n2)c1` (stereo not drawn) | 11.88% | 3.668% |
| `Cc1cc(-c2cnn(CCNC(=O)CCn3cccn3)c2C2CC2)on1` | 8.889% | 2.867% |
| `CCC(CC)NC(=O)Cn1nc(C)nc1-c1ccccc1` | 3.759% | 8.597% |
| `O=C(Cc1ccc2c(c1)CCO2)N1CCCC1Cn1cccn1` (stereo not drawn) | 9.045% | 5.335% |
| `CN(C)c1cnn(CC(=O)N2CCCCCC2)c(=O)c1` | 4.082% | 4.203% |
| `COc1cc(N2C[C@H]3CCN(CCN4CCCC4)C[C@H]3C2)ncn1` | 1.266% | 4.783% |
| `N#Cc1ccc(Nc2nc3c(s2)C(=O)CN(CC2CC2)C3)cc1` | 28.25% | 5.683% |
| `Cc1cnn(C2CN(CC(O)c3ccccc3)C2)c1` (stereo not drawn) | 20.69% | -1.666% |
| `Cc1nn(C)c(Cl)c1S(=O)(=O)N(C)C` | 12.5% | 1.658% |
| `Cc1ccc2nc(C(=O)N3C[C@@H](C(=O)O)[C@H](c4ccccc4)C3)cn2c1` | 10% | 3.674% |
| `Cc1cc(F)ccc1S(=O)(=O)N1CCN(C)Cc2ccccc21` | 3.448% | 1.103% |
| `CC1CCN(CCNC(=O)C2CCN(C(=O)C(C)(C)C)CC2)CC1` | 5.911% | 4.777% |
| `COc1ccccc1OCC(=O)NCC(O)(c1cccs1)C1CC1` (stereo not drawn) | 6.024% | 8.176% |
| `O=C1CN(CC2CC2)Cc2nc(NCCc3ccccn3)sc21` | 13.56% | -0.1322% |
| `Cc1cc(C)n(CCCN(C)Cc2cn[nH]c2-c2ccc(F)cc2)n1` | 9.231% | 3.163% |
| `O=c1cc2c(nn1CN1CCC(c3ccccc3)CC1)CCC2` | -6.024% | 4.876% |
| `CN(C)C(=O)CO[C@H]1CN(Cc2cccc(F)c2)[C@@H]2CCCO[C@H]12` | 8.911% | 0.2496% |
| `Cn1nc2c(cc1=O)CN(Cc1nc(-c3cccnc3)no1)CC2` | 1.13% | -1.066% |
| `CC(C)N(C)S(=O)(=O)N(Cc1cccs1)CC1CCCO1` (stereo not drawn) | 0.6024% | -7.155% |
| `Cc1nc(CNC(C)c2cccc(S(=O)(=O)N(C)C)c2)no1` (stereo not drawn) | 6.404% | 3.214% |
| `COc1cccc(C2CC(=O)Nc3c2c(=O)n(C)c2ncnn32)c1` (stereo not drawn) | 2.959% | -0.1634% |
| `COC(=O)CNC(=O)C1(N(C)Cc2ccccc2)Cc2ccccc2C1` | 1.093% | 1.421% |
| `CCc1ncc(-c2nccn2-c2cccc(CC(=O)O)c2)cn1` | 7.514% | 3.207% |
| `CC(NS(=O)(=O)N(C)C(C)C)C(=O)N(C)C` (stereo not drawn) | 5.882% | 0.7456% |
| `Cc1ccc(NC2CCN(C(=O)c3cccc4[nH]ncc34)CC2)nn1` | 4.611% | -0.8998% |
| `CNC(=O)C1CN(c2cc(C)ncn2)CCN1Cc1ccccc1` (stereo not drawn) | 5.747% | -1.423% |
| `Cc1cccc(-c2[nH]ncc2CNCC2CCN(CC(C)O)CC2)c1` (stereo not drawn) | 3.759% | 2.818% |
| `CCC(=O)N1CCN(C(=O)NC2CCc3ccccc3C2)CC1` (stereo not drawn) | 9.497% | 4.418% |
| `Cc1c(CNC(=O)C2CCCCCN2C)oc2ccccc12` (stereo not drawn) | 2.041% | 7.356% |
| `CC(c1ccco1)N(C(=O)c1cccc(C#N)c1)C1CC1` (stereo not drawn) | 2.463% | 4.809% |
| `O=c1[nH]c(-c2ccccn2)nc2c1CCN(Cc1cccc(O)c1)C2` | -1.064% | 2.932% |
| `CN(Cc1ccon1)C(=O)C1CC(=O)N(Cc2ccncc2)C1` (stereo not drawn) | 4.237% | 7.791% |
| `O=C1C[C@H]2[C@@H](CCN2C(=O)Cc2ccsc2)N1Cc1cccnc1` | 8.738% | 5.128% |
| `Cc1nc(C)c(C(=O)N2CCCc3c(F)ccc(F)c32)o1` | 7.879% | 2.768% |
| `CCCn1ncc(CN2C[C@@H]3CCCN3C[C@@H]2Cc2ccccc2)c1C` | 6.667% | 2.913% |
| `COc1nn(C)c2c1CCCN(C(=O)c1ccc3ccccc3n1)C2` | -21.47% | -0.1901% |
| `Cc1nc(CN2CCc3ncnc(-c4ccsc4)c3CC2)cs1` | 6.897% | -2.299% |
| `CCN1CCN(Cc2nc(CC(C)C)no2)CC1` | 1.176% | -1.161% |
| `O=C(c1cnccn1)N1CCC2(CCN(Cc3ccsc3)C2)CC1` | 8.571% | 0.9671% |
| `Cc1cc(C(=O)N2CC[C@@]3(C[C@@H](NS(C)(=O)=O)CCO3)C2)no1` | 9.804% | 1.769% |
| `CN(C)CCCn1ccnc1C1CCN(c2cccc(C(=O)O)n2)CC1` | -13.38% | 0.9601% |
| `O=S(=O)(c1ccc(Cl)cc1)N1CCC(OCc2ccccn2)C1` (stereo not drawn) | 14.47% | 4.075% |
| `COc1cc(N2C[C@H]3CN(CC(=O)N(C)C)C(=O)[C@H]3C2)ncn1` | 2.532% | 8.941% |
| `O=S(=O)(c1cc(F)ccc1F)n1cc(Cl)cn1` | 3.96% | -1.681% |
| `Cc1ccc(CC(=O)N2CCCC(c3ccn[nH]3)C2)cn1` (stereo not drawn) | 1.458% | 1.798% |